Source: patent publication US11685766B2, “14-3-3 targeting peptides for cancer treatment” (Creighton University, priority 2019, dated 2023)
At least one compound was matched to its structure with a doubt left. Peptide text beside a SMILES is read from it.

Biological target: T1, 14-3-3ε protein (Homo sapiens, UniProt P62258)
T1 sequence (P62258 1-255): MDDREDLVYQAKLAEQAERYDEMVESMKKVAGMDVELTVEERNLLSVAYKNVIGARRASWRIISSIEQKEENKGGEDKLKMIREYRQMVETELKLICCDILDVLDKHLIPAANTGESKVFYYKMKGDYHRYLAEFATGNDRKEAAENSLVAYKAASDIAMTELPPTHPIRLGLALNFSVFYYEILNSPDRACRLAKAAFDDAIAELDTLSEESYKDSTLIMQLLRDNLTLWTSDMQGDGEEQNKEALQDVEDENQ
Test: Differential scanning fluorimetry (DSF) binding
Settings: 7 μM 14-3-3ε, ΔTm vs peptide concentration, Hill fit; read-out: Kd, binding affinity to 14-3-3ε protein (DSF)
Method: Differential scanning fluorimetry (DSF) experiments were performed using BioRad CFX384 Real-Time qPCR attached with C1000 Touch Thermo Cycler in the FRET channel. 7 μM subunits of 14-3-3ε protein, ten molar excess of Sypro Orange and 20 mM Tris-HCl, pH 7.4 assay buffer were used in all the melting experiments. Stock solution of peptides were prepared by dissolving 1 mg of lyophilized peptides in 20 mM Tris, pH 7.4 buffer and 0.1 μM to 200 μM dilution series were prepared. Protein melting experiments were performed both in the absence and the presence of increasing concentration of peptides. […] Melting temperatures of each well were determined using the CFX Maestro software version 2.0 by plotting the first derivative of fluorescence signal against temperature. All the measurements were performed in triplicate and the deviations of melting temperatures (ΔTm) presented for each samples were calculated relatively to three control samples (7 μM 14-3-3ε in the absence of the peptide). Binding constant (Kd) for each peptide was calculated by plotting ΔTm against peptide concentration and data points were fitted with Hill's equation using GraphPad 9.0 software.

Compound | Kd [µM]
CC(=O)N[C@@H](CCCNC(=N)N)C(=O)N[C@H](C(=O)N[C@@H](CCCCN)C(=O)N[C@@H](CO)C(=O)N[C@@H](CCCNC(=N)N)C(=O)N[C@H](C(=O)N[C@@H](Cc1c[nH]c2ccccc12)C(=O)N[C@@H](C)C(=O)NCC(N)=O)[C@@H](C)OP(=O)(O)O)[C@@H](C)O [FIG. 4B, Ac-Arg-Thr-Lys-Ser-Arg-Thr(PO3^2−)-Trp-Ala-Gly-NH2] | 2.16
CC(=O)N[C@@H](CCC(N)=O)C(=O)N[C@@H](CCCNC(=N)N)C(=O)N[C@@H](CCC(N)=O)C(=O)N[C@@H](CC(N)=O)C(=O)N[C@@H](COP(=O)(O)O)C(=O)N[C@@H](C)C(=O)N1CCC[C@H]1C(=O)N[C@@H](C)C(=O)N[C@@H](CCCNC(=N)N)C(N)=O [FIG. 4E, Ac-Gln-Arg-Gln-Asn-Ser-(PO3^2−)-Ala-Pro-Ala-Arg-NH2] (HELM PEPTIDE1{[ac].Q.R.Q.N.[O=C([C@H](COP(=O)(O)O)N[*:1])[*:2]].A.P.A.R.[am]}$$$$V2.0) | 20.6
